In patent publication US20080213860:
Residue numbers refer to the chain shown, from its start. Construct, isoform or probe ends are uncertain for at least one entry. Protein sequences can lack the tags named with them.

Experiments:
Experiment in all cases: enzyme reaction in vitro
Conditions in all cases: ds-DNA cleavage; protein in an extract; only the site is given
[1] = test system: T1, BsmI R5D (Bacillus stearothermophilus NUB36)
T1 sequence: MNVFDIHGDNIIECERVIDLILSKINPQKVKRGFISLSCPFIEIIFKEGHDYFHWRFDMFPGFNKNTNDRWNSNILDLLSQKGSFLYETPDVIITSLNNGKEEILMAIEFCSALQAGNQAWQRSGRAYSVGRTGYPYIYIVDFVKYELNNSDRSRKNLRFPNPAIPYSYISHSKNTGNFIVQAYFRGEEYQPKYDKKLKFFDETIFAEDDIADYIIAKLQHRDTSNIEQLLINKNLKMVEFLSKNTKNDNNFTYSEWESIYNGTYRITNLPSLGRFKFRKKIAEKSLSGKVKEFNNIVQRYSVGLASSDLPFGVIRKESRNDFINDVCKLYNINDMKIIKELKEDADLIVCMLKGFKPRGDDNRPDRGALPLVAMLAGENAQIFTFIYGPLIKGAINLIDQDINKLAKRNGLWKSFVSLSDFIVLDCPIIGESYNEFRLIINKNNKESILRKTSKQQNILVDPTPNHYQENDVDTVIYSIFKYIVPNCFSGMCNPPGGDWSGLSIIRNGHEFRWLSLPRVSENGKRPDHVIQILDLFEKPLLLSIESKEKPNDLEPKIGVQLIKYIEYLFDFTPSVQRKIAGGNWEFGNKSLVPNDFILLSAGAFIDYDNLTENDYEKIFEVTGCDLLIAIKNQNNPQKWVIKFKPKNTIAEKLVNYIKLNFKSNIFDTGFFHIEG

[2] = test system: T2, BsmI R300D (Bacillus stearothermophilus NUB36)
T2 sequence: T1 sequence with D5R, R300D

[3] = test system: T3, BsmI R279D (Bacillus stearothermophilus NUB36)
T3 sequence: T1 sequence with D5R, R279D

[4] = test system: T4, BsmI R316D (Bacillus stearothermophilus NUB36)
T4 sequence: T1 sequence with D5R, R316D

Measured: activity on this sequence

GCATTC [pBR322 supercoiled plasmid (one BsmI site)]
active: [1] | [2] | [3] | [4]
